From US20120189673A1, “POLYPEPTIDES AND USES THEREOF” (priority 2009, published 2012)
“Also recorded” adds a separate entry of the source.

Test: CD-spectroscopy of peptide secondary structure
Format: physicochemical
Conditions: 10 μM peptide; for conformational change (helical content) on binding to liposomes: DOPE/DOPG liposomes; for conformational change together with E. coli LPS: E. coli lipopolysaccharide 0.02 wt %

For “GGLIKTKRKRKKQRVKIAYEEIFVKNM [GGL27, C-terminal peptide of TFPI, plasmin-generated]”, the “conformational change (helical content) on binding to liposomes” value was “largely unaffected; also recorded: no significant conformational changes” and the “conformational change together with E. coli LPS” value was “only relatively minor ones”.
With LIKTKRKRKKQRVKIAY [LIK17] the “conformational change (helical content) on binding to liposomes” value was “largely unaffected; also recorded: no significant conformational changes” and the “conformational change together with E. coli LPS” value was “only relatively minor ones”.
